These are yes or no findings as the source states them, for the method shown. For part of these data: In cells and extracts the contact can be indirect. Some entries that bind do so weakly or less than the wild type. For part of these data: Sequences can lack the tags named with a protein.

The chains behind the UniProt entries cited, without tags or fusion partners.
UniProt P32558: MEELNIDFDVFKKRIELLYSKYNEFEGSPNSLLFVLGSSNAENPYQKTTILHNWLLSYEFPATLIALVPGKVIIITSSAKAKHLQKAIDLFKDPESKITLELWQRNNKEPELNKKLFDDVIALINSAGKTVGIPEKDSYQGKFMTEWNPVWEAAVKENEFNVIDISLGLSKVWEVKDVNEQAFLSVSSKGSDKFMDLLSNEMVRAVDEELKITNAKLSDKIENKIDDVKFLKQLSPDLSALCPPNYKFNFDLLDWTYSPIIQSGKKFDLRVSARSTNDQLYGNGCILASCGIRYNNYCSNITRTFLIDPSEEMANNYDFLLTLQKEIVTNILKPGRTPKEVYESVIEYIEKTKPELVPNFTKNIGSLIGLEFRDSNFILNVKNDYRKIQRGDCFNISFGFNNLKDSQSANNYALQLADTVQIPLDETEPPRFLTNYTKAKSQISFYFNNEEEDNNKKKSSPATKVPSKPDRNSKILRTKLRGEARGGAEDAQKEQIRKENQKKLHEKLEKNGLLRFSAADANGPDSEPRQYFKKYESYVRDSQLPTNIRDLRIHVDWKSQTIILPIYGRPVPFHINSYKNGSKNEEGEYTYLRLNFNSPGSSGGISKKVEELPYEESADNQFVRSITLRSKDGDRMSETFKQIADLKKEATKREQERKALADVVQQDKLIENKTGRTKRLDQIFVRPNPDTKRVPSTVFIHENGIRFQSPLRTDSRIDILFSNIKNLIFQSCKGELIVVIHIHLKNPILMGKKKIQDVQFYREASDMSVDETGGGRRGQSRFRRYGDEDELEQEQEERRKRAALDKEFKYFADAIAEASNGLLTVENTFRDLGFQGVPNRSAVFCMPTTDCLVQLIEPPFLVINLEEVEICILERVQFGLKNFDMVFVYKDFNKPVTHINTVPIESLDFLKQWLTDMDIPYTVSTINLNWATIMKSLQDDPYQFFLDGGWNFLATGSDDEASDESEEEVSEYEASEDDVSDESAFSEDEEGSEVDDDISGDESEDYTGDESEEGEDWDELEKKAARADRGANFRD
UniProt Q04636: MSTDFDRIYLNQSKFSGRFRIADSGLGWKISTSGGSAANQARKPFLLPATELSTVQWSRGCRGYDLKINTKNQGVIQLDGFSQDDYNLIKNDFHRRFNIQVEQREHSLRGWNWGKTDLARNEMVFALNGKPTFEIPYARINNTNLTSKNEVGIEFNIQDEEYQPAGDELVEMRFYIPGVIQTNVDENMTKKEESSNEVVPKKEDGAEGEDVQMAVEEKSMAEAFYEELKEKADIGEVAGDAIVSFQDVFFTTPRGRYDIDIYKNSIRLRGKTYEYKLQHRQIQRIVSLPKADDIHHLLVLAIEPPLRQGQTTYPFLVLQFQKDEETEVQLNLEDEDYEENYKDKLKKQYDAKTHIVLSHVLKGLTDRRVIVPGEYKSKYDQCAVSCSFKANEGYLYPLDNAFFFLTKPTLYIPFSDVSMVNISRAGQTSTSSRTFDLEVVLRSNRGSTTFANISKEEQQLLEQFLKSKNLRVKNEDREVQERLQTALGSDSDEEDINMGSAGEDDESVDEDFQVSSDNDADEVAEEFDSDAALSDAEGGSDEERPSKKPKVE
UniProt Q9Y5B9: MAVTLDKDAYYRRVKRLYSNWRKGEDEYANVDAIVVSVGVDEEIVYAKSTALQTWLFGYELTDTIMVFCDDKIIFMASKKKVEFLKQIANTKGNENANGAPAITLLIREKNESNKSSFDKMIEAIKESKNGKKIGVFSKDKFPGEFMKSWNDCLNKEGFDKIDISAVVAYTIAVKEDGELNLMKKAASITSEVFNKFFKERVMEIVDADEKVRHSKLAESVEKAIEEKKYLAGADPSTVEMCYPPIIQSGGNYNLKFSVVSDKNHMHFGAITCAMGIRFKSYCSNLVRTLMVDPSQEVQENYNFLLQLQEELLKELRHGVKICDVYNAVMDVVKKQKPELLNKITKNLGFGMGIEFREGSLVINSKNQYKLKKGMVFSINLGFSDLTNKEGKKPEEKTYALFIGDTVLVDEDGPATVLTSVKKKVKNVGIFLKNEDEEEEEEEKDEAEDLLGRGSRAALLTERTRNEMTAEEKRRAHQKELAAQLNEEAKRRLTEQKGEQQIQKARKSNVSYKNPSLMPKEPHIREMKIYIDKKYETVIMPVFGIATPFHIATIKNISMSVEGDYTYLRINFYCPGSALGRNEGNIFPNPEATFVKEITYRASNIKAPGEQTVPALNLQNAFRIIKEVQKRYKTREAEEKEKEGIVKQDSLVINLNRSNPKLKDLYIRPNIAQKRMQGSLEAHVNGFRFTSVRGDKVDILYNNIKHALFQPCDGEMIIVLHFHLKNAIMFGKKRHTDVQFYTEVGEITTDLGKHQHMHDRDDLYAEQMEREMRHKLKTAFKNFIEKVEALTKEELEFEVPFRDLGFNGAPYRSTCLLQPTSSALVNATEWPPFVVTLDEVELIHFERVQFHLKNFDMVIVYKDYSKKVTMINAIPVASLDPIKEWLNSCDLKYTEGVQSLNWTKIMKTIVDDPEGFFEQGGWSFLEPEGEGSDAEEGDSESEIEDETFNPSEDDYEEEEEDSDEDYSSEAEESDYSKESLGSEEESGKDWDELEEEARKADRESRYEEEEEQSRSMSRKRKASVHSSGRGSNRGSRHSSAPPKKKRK

The target in assay [1] is His6-ySpt16 (S. cerevisiae Spt16) (S. cerevisiae) (UniProt P32558). Nature of the assay: co-purification (tandem affinity, His tag then Flag M2); his-ySpt16 and Flag-yPob3 co-expressed in bacteria; purified similar to his-hNDF, then Flag M2 agarose, 3x Flag peptide elution; SDS-PAGE.
Assay [2] deals with T1, NDF (nucleosome destabilizing factor), endogenous (human (endogenous in HeLa)) (UniProt Q49A26).
T1 sequence: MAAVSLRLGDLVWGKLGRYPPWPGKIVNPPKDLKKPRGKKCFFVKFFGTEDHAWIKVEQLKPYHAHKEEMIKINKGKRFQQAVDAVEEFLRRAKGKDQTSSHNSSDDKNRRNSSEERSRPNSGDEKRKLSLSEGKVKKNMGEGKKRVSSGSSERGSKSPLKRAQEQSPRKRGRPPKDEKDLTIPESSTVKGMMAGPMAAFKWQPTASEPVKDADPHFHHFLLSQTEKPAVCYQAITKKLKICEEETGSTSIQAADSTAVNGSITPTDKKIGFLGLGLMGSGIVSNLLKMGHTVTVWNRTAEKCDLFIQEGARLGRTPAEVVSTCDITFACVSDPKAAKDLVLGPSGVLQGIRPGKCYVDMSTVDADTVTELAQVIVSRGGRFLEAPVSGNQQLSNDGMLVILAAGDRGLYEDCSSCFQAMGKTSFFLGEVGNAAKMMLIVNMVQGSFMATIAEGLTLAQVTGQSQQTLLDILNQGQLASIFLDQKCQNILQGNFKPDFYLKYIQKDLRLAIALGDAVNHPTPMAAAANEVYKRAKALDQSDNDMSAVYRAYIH
Nature of the assay: co-IP; HeLa lysate in RIPA buffer, sonicated; hNDF antiserum on Protein A agarose, 4 °C 3 h; western blot.

Assay [3] concerns the target T2, His6-ySpt5 (S. cerevisiae Spt5) (S. cerevisiae) (UniProt P27692).
T2 sequence: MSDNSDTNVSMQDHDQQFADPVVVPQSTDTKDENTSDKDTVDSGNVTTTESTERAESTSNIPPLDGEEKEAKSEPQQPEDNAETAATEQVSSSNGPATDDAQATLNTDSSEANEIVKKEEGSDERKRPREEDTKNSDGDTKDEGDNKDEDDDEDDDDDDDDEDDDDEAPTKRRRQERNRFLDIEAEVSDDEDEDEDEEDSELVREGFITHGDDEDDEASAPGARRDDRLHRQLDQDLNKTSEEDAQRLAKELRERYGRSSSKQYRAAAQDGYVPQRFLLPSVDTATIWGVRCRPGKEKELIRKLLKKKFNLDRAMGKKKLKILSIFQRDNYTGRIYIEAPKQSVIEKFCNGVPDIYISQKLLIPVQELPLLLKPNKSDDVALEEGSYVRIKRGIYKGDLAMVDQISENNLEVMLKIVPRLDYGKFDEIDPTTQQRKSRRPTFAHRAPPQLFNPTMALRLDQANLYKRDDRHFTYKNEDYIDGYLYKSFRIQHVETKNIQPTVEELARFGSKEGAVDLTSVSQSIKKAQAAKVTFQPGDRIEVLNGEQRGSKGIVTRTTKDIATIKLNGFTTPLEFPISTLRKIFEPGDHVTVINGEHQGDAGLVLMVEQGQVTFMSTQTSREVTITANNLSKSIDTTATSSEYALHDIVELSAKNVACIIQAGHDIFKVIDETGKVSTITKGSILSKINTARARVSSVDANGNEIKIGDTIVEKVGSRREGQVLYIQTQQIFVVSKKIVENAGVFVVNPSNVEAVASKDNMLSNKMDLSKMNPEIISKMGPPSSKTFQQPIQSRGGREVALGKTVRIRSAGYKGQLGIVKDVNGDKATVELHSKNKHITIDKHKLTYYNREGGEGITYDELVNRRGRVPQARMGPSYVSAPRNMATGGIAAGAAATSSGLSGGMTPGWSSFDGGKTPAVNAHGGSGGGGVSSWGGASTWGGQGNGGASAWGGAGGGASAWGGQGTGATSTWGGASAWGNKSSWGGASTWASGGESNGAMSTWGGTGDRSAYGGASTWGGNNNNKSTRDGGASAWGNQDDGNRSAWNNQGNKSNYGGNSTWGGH
Nature of the assay: co-purification (tandem affinity, Ni-NTA then Flag M2); His6-ySpt5 and Flag-ySpt4 co-expressed in Rosetta 2 (DE3) pLysS; Ni-NTA in 700 mM NaCl, then Flag M2 agarose with washes at 400 mM KCl, 3x Flag peptide elution, 4 °C.

As to “Flag-yPob3 (S. cerevisiae Pob3) (from UniProt Q04636 1-552)”, the binding result in assay [1] is “binds”.

As to “Spt16 (SUPT16H), subunit of the human FACT complex, endogenous (from UniProt Q9Y5B9 1-1047)”, the binding entry in assay [2] is reported as “binds”.

B1: Flag-ySpt4 (S. cerevisiae Spt4) (protein, UniProt P32914 1-102)
chain: MSSERACMLCGIVQTTNEFNRDGCPNCQGIFEEAGVSTMECTSPSFEGLVGMCKPTKSWVAKWLSVDHSIAGMYAIKVDGRLPAEVVELLPHYKPRDGSQVE
In the case of B1, in assay [3], the binding result is “binds”.

Values taken from PMC12611769, “Phase-separated NDF−FACT condensates facilitate transcription elongation on chromatin” (Nature Cell Biology, 2025).
